Earlier results as cited in patent publication US7205343B2, “Stabilized bioactive preparations and method of use” (priority 1997, dated 2007).
At least one structure is not confirmed: it was looked up by name or label, or the drawing left a doubt.

Conditions: cited from earlier work

Row | SMILES | Refractive Index
1 | FC(F)(Cl)Cl [CFC-12] | 1.287
2 | FCC(F)(F)F [HFA-134a] | 1.172
